This note sets out measurements from PubChem BioAssay AID2685 (National Center for Advancing Translational Sciences (NCATS), 2010).

Molecules are shown by their SMILES. “And” between values parts separate entries of the source, which are not always exact repeats. Identical values can stand only once. The list shows a part of the results. Shown are side measurements of this screen, not its main read-out; they come without a call. The list favours compounds with an active or inconclusive main result. Potencies come from curve fits of mixed quality, noted in brackets.

Broadly, the AC50 is the concentration giving half of the maximal activity seen. Low readings indicate activity at low concentration, high ones activity only at high concentration.

The experiment can be described thus: qHTS Assay for Lipid Storage Modulators in Drosophila S3 Cells.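 For cell number change: cells counted by Cell Tracker Red CMTPX staining in the red channel.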 The conditions noted are these: BODIPY lipid droplet fluorescence, 18-24 h; for cell number change: measured here: cell count max response, cells fed with added oleic acid. Summed up: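 Drosophila S3 cells loaded with oleic acid (400 uM, as added) and compounds at several concentrations; lipid droplets imaged by 488-nm laser-scanning cytometry, 500–530 nm intensity and object ratio to cell channel. Percent activity normalized to 20 uM Triacsin C.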
For orientation: In qHTS, concentration-response curves come from the screen itself.

Where [1] appears, read: measured here: cell number channel AC50, cells fed with added oleic acid.
[2] abbreviates: measured here: lipid fluorescence (Fed channel) AC50, cells fed with added oleic acid.

As to `O=C(O)CC1(CC(=O)Nc2ccc(Oc3cccc(C(F)(F)F)c3)nc2)CCCC1`, the cell number change was -61.3%. For the same compound, the AC50 under setting [1] is 29.1 µM [falling, single point]. Also, the AC50 under setting [2] is 20.6 µM [falling, single point].
`O=S(=O)(Nc1ccc(O)c2ccccc12)c1ccc(Br)cc1`: the cell number change came to 2.56%. The AC50 under setting [2] is 5.17 µM [rising, single point].
In the case of `COc1ccc(CCNC(=O)c2ccc3c(c2)NC(=O)C(N2CCOCC2)S3)cc1OC` (stereo not drawn), the AC50 under setting [2] was 2.91 µM [falling, partial curve].
On to `Cc1cccc(-n2ncc3c(NCCCN4CCCC4=O)ncnc32)c1`, for which the cell number change was -26.8%. Besides, under setting [2], the AC50 is 0.00461 µM [falling, full curve, poor fit].
As to `CC(C)[C@H](NS(=O)(=O)c1cccc(C(F)(F)F)c1)C(=O)OCC(N)=O`, the cell number change was -52.4%. Moreover, the AC50 under setting [1] is 29.1 µM [falling, single point].
As to `C#CCOc1ccc(/C=C2/C(=O)NN(c3ccccc3)C2=O)cc1OC`, the cell number change was 14.4%. In addition, under setting [1], the AC50 was 0.103 µM [rising, full curve, poor fit]. Moreover, the AC50 under setting [2] was 29.1 µM [falling, single point].
For the compound `O=c1c2ccccc2sn1-c1nccs1`, the cell number change is -61.5%. Besides, under setting [1], the AC50 is 32.6 µM [falling, single point]. In addition, the AC50 under setting [2] is 16.4 µM [falling, partial curve, poor fit].
For the compound `COC(=O)Cc1ccc(NC(=S)Nc2ccc(N3CCOCC3)cc2)cc1`, the cell number change is 32%.
As to `CC1=C([N+](=O)[O-])C(c2ccc(O)c(O)c2)NC(=O)N1` (stereo not drawn), the cell number change is 18.9%. Under setting [2], the AC50 was 29.1 µM [rising, single point].
For `CCOC(=O)C1CCN(Cc2ccc(OC)cc2OC)CC1`, the cell number change was -138%. Also, the AC50 under setting [1] was 29.1 µM [falling, partial curve]. Moreover, the AC50 under setting [2] was 29.1 µM [falling, partial curve].
`O=C(Nc1ccncc1)Nc1ccncc1`: the cell number change came to 7.57%.
As for `COC(=O)CSc1nnc(CNc2ccc(Cl)cc2)n1Cc1ccccc1`, the cell number change was -32.7%. Besides, under setting [1], the AC50 is 0.92 µM [falling, full curve]. Besides, under setting [2], the AC50 was 18.4 µM [falling, partial curve].
Consider `Cc1ccc(C)c(C(=O)CCC(=O)O)c1`, for which the cell number change was 7.34%. Also, under setting [2], the AC50 was 0.411 µM [falling, full curve, poor fit].
Take `CCCCSC(=O)Nc1ccccc1`: the cell number change is -17.6%.
For the compound `CCN(CC)S(=O)(=O)c1ccc(/C=C/C(=O)OCC(=O)Nc2cccnc2Cl)cc1`, the cell number change is -10.2%. Besides, the AC50 under setting [2] is 0.00461 µM [falling, full curve, poor fit].
As to `CCC(C)[C@H](NC(=O)[C@@H]1CSC2c3ccccc3C(=O)N21)C(=O)NCc1ccncc1` (stereo partly drawn), the cell number change was -9.2%. Also, the AC50 under setting [2] was 6.51 µM [falling, single point].
`O=C(O)CSc1nnc(-c2ccncc2)n1-c1ccc(Cl)cc1`: the cell number change was -51%. Moreover, the AC50 under setting [1] was 29.1 µM [falling, single point]. Under setting [2], the AC50 is 29.1 µM [falling, single point].
Take `Cc1c(Cc2ccc3c(c2)OCO3)sc(NC(=O)c2ccccc2)c1C(N)=O`: the cell number change is -42.7%. In addition, the AC50 under setting [1] is 32.6 µM [falling, single point]. Further, the AC50 under setting [2] is 32.6 µM [falling, single point].
Consider `Cc1cccc(NC(=O)c2ccc(Cl)c(S(=O)(=O)N3CCc4ccccc43)c2)n1`, for which the cell number change is -1.81%. Further, the AC50 under setting [2] is 13 µM [falling, partial curve, poor fit].
`NNC(=S)Nc1cccc(Cl)c1`: the cell number change is -2.56%.
Regarding `O=C(CCNC(=O)c1ccc([N+](=O)[O-])cc1)NCCCN1CCCC1=O`, the cell number change came to 28.1%. The AC50 under setting [1] was 0.092 µM [rising, full curve, poor fit].
Consider `COc1cccc(CN2C(=NC(=O)C3CC3)SC3CS(=O)(=O)CC32)c1` (stereo not drawn), for which the cell number change turned out to be 24.8%. Besides, the AC50 under setting [2] was 29.1 µM [rising, single point].
As to `O=C(c1ccc2c(c1)N(Cc1cccc(Cl)c1)C(=O)c1ccccc1S2(=O)=O)N1CCN(c2ccccn2)CC1`, the AC50 by setting is: under setting [1], 2.31 µM [rising, partial curve]; under setting [2], 2.06 µM [rising, partial curve, poor fit].
In the case of `O=C(O)c1cccc(N2C(=O)Nc3ccccc3N2O)c1`, the cell number change is -14.1%. Further, the AC50 under setting [2] was 3.26 µM [falling, partial curve, poor fit].
For `CCOC(=O)c1ccc(NC(=S)NCc2ccccc2)cc1`, the cell number change is -3.56%.
Take `Cc1cc(C)cc(NC(=O)C(Sc2nnc(C)c(=O)[nH]2)c2ccccc2)c1` (stereo not drawn): the cell number change is -20.5%. Besides, under setting [1], the AC50 is 0.103 µM [falling, full curve, poor fit]. Also, under setting [2], the AC50 is 18.4 µM [falling, partial curve].
Regarding `CC(C)N(C(=O)Cn1cc(S(=O)(=O)CC(=O)NCc2ccccc2)c2ccccc21)C(C)C`, the cell number change was 1.08%. The AC50 under setting [2] is 29.1 µM [rising, single point].
As for `O=C(/C=C/Nc1cccc(F)c1)c1ccco1`, the cell number change came out at 74%. Under setting [1], the AC50 was 20.6 µM [rising, single point].
`CC(=O)Nc1ccc(S(=O)(=O)NCC(=O)NCCc2ccc(S(N)(=O)=O)cc2)cc1`: the cell number change is -7.81%.
In the case of `C/C(Sc1nnc(Cc2ccccc2)o1)=C(/O)c1ccccc1`, the cell number change was determined as 5.73%.
As for `Cc1nnc(SC(C(=O)Nc2ccc(Cl)c([N+](=O)[O-])c2)c2ccccc2)[nH]c1=O` (stereo not drawn), the cell number change is -10.9%. In addition, under setting [1], the AC50 is 6.51 µM [rising, single point]. Further, the concentration at half-maximal activity (AC50) under setting [2] is 6.51 µM [rising, partial curve].
As for `COC(=O)C1CCN(C(=O)c2cc(=O)[nH]c3ccccc23)CC1`, the AC50 under setting [1] was 2.31 µM [rising, partial curve].
As to `CCOC(=O)C1CCN(C(=O)/C=C/c2ccc3c(c2)OCO3)CC1`, the cell number change amounted to 10.1%.
As to `Cc1ccc(NC(=O)CN2CCC(NC(=O)c3cccc(F)c3)CC2)cc1C`, the cell number change is -20.9%. For the same compound, under setting [2], the AC50 was 0.103 µM [falling, partial curve, poor fit].
With `Cc1nc2nc(-c3ccccc3)[nH]n2c(=O)c1C`, the cell number change turned out to be 24.2%. Moreover, under setting [2], the AC50 is 29.1 µM [rising, single point].
Consider `COc1ccc(-c2cc(OC)c3c(C)oc(C)c3c(=O)c2)cc1OC`, for which the cell number change is -33%. Moreover, the AC50 under setting [1] is 0.291 µM [falling, full curve, poor fit]. In addition, the AC50 under setting [2] is 1.3 µM [rising, partial curve].
`CNC(=O)c1c(NC(=O)c2ccc(S(=O)(=O)N3CCCC3)cc2)sc2c1CCN(C(C)C)C2`: the cell number change was 10.9%.
On to `CCCCN(CC)C(=O)c1ccc2c(c1)OCO2`, for which the AC50 under setting [2] was 0.13 µM [rising, partial curve, poor fit].
Turning to `COc1cc(/C=N/NC(=O)CCN2CCCCC2)ccc1O`, the cell number change is -48.7%. Moreover, the AC50 under setting [1] was 29.1 µM [falling, single point]. For the same compound, under setting [2], the AC50 is 0.206 µM [falling, full curve].
Take `COCCN(Cc1cc2cc(C)cc(C)c2nc1Cl)C(=O)Nc1ccccc1`: under setting [2], the AC50 is 0.259 µM [falling, full curve].
In the case of `O=C(Cn1cnc2c(cnn2-c2ccc(F)cc2)c1=O)OCc1ccccc1`, the cell number change turned out to be 0.822%.
On to `CC(C)N(C(=O)CN1CCC(c2nc3ccccc3[nH]2)CC1)C(C)C`, for which the cell number change is 17.6%. The AC50 under setting [2] is 0.82 µM [rising, single point].
Turning to `O=C(Cc1ccc(-n2cccc2)cc1)N1CCN(c2ccccc2F)CC1`, the cell number change was found to be 9.74%. Further, the AC50 under setting [2] is 7.31 µM [rising, partial curve].
With `COc1ccc(-c2c(C(F)(F)F)nn(C)c2NC(=O)c2cccnc2)cc1`, under setting [1], the AC50 is 0.00517 µM [rising, full curve, poor fit].
On to `O=C(Nc1ccc(Cl)cn1)c1ccccc1F`, for which the cell number change came to 11.7%. Also, the AC50 under setting [2] was 29.1 µM [rising, single point].
On to `COc1ccc(N2C(=O)CC(N3CCN(c4ccc(S(C)(=O)=O)cc4)CC3)C2=O)cc1` (stereo not drawn), for which the cell number change came to 3.06%. Besides, the AC50 under setting [2] is 6.51 µM [falling, single point].
On to `COC(=O)c1cc2ccsc2n1Cc1nc(-c2ccc(OC)cc2)oc1C`, for which, under setting [1], the AC50 was 2.91 µM [rising, partial curve].
Take `COC(=O)c1ccccc1NC(=O)COC(=O)c1ccccc1N=Nc1ccc(N(C)C)cc1`: the cell number change is -57.8%. Also, under setting [1], the AC50 is 18.4 µM [falling, partial curve]. For the same compound, the AC50 under setting [2] is 2.06 µM [rising, partial curve].
Consider `Cc1ccc(C)c(N=Cc2ccc(-c3ccc([N+](=O)[O-])cc3)o2)c1`, for which the cell number change is -0.361%.
Take `COc1cc(Cl)ccc1OCc1cc(C(=O)N[C@H]2CCCCNC2=O)no1`: the cell number change came to 0.567%. Moreover, the AC50 under setting [2] is 16.4 µM [rising, partial curve].
For the compound `O=C(Nc1ccc2[nH]ncc2c1)c1cccc(F)c1`, the cell number change is -15.4%.
As for `Cc1cc(C)n(-c2ccc(S(=O)(=O)N3CCCC3)cc2[N+](=O)[O-])n1`, the cell number change was -0.585%. For the same compound, the AC50 under setting [2] is 6.51 µM [falling, single point].
With `O=C(O)c1ccc2c(=O)n(Cc3ccccc3)c(SCc3ccc([N+](=O)[O-])cc3)nc2c1`, the cell number change stood at 39.4%. Further, the AC50 under setting [1] is 29.1 µM [rising, single point].
Regarding `CNC(=O)C1CCCN1S(=O)(=O)c1ccc(OC)cc1` (stereo not drawn), the cell number change was -201%. For the same compound, under setting [1], the AC50 is 18.4 µM [falling, partial curve].
`CCn1nc(C)c(/C=N/NC(=O)Cn2nnnc2N)c1C`: the AC50 under setting [2] was 29.1 µM [falling, single point].
On to `Cc1ccc(CN(C)Cc2cc(=O)oc3cc(C)c(Cl)cc23)cc1`, for which the cell number change was 5.74%. The AC50 under setting [2] is 29.1 µM [rising, single point].
Take `Cc1c(OCC(F)(F)F)ccnc1CS(=O)c1nc2ccccc2[nH]1` (stereo not drawn): the cell number change is -33.3% and -33.6%. Besides, the half-maximal activity concentration (AC50) under setting [1] was 29.1 µM [falling, single point]. Under setting [2], the AC50 was 20.6 µM [falling, single point] and 29.1 µM [falling, single point].
As for `CCOc1ccc2nc(N(CCN(CC)CC)C(=O)/C=C/c3cccs3)sc2c1`, the cell number change turned out to be 15.3%. For the same compound, the AC50 under setting [1] is 0.461 µM [rising, single point].
As to `CN(C)C(=O)c1cc(C(=O)c2ccccc2Cl)c[nH]1`, the cell number change stood at 94.8%. The AC50 under setting [1] is 29.1 µM [rising, partial curve, poor fit].
For `CCCCn1c(N)c(N(CC(C)C)C(=O)c2cccc(S(=O)(=O)N3CCCCCC3)c2)c(=O)[nH]c1=O`, the AC50 under setting [1] is 0.146 µM [falling, full curve, poor fit].
